Results deposited as PubChem BioAssay AID743121 (NCATS, 2013)

- Purpose: 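Knock-downs that sensitise breast cancer cells to camptothecin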 (primary screen)
- System: MDA-MB-231 cells, a human breast cancer line
- Reagent: single siRNA against human genes, 20 nM siRNA (0.8 pmol per well)
- Time to read-out: 120 h (drug added 48 h after transfection, read 72 h later)
- Challenge: camptothecin 20 nM (about EC30) for 72 h; vehicle 0.1% DMSO in parallel plates
- Measurement: 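Cell viability by ATP luminescence (CellTiter-Glo) as % of non-targeting siRNA wells, and the log2 ratio of viability without drug over viability with camptothecin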
- Scale: log2 vehicle/camptothecin viability: higher = stronger sensitisation to camptothecin; viability with camptothecin: higher = more viable cells
- Units: viability with camptothecin in % of control
- Active means: 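Each gene scored by redundant siRNA activity (RSA) over its individual siRNA ratios; a gene is called active at p < 0.001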
Shown is a random part of about 26,000 reagents tested. In the full data, 167 (0.63%) were called active. 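Calls are per gene from RSA p-values that are not deposited; an individual active-marked siRNA can sensitise only weakly.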 The numbers tell different reagents against one gene apart. Further read-outs or replicates are left out here.

Silencing of FANCA #1 gave: log2 vehicle/camptothecin viability -0.216; viability with camptothecin 79; inactive.
With knock-down of FANCA #2, the record shows log2 vehicle/camptothecin viability -0.0691; viability with camptothecin 74.6; inactive.
Against FANCA #3 the deposit lists log2 vehicle/camptothecin viability 0.284; viability with camptothecin 59.6; inactive.
For FANCA #4, the values are log2 vehicle/camptothecin viability -0.333; viability with camptothecin 79.8; inactive.
Silencing of NPR1 #1 came out at: log2 vehicle/camptothecin viability 0.333; viability with camptothecin 82.5; inactive.
Against NPR1 #2, the entry reads log2 vehicle/camptothecin viability -0.217; viability with camptothecin 99.8; inactive.
NPR1 #3 scored log2 vehicle/camptothecin viability -0.236; viability with camptothecin 115; inactive.
Depletion of NPR1 #4 resulted in: log2 vehicle/camptothecin viability -0.0998; viability with camptothecin 23.4; inactive.
MSN #1 showed log2 vehicle/camptothecin viability 0.385; viability with camptothecin 63.9; inactive.
Against MSN #2 the deposit lists log2 vehicle/camptothecin viability 0.194; viability with camptothecin 71.4; inactive.
MSN #3 scored log2 vehicle/camptothecin viability -0.707; viability with camptothecin 79.5; inactive.
Against MSN #4 the deposit lists log2 vehicle/camptothecin viability 0.495; viability with camptothecin 54; inactive.
After knock-down of NSMAF #1 the results were log2 vehicle/camptothecin viability -0.131; viability with camptothecin 110; inactive.
NSMAF #2 showed log2 vehicle/camptothecin viability -0.173; viability with camptothecin 111; inactive.
Knock-down of NSMAF #3 came out at: log2 vehicle/camptothecin viability -0.203; viability with camptothecin 109; inactive.
For NSMAF #4, the values are log2 vehicle/camptothecin viability -0.0668; viability with camptothecin 49.7; inactive.
MAF #1 scored log2 vehicle/camptothecin viability -0.122; viability with camptothecin 79.3; inactive.
Depletion of MAF #2 came out at: log2 vehicle/camptothecin viability -0.457; viability with camptothecin 75.8; inactive.
Against MAF #3 the deposit lists log2 vehicle/camptothecin viability -0.484; viability with camptothecin 107; inactive.
Knock-down of PCCB #1 resulted in: log2 vehicle/camptothecin viability -0.211; viability with camptothecin 98.3; inactive.
PCCB #2 gave log2 vehicle/camptothecin viability 0.105; viability with camptothecin 65.7; inactive.
For PCCB #3, the values are log2 vehicle/camptothecin viability -0.454; viability with camptothecin 51.6; inactive.
With knock-down of PCCB #4 the results were log2 vehicle/camptothecin viability -0.131; viability with camptothecin 81.6; inactive.
PHF10 #1 showed log2 vehicle/camptothecin viability -0.0952; viability with camptothecin 87; inactive.
PHF10 #2 gave log2 vehicle/camptothecin viability -0.0353; viability with camptothecin 89.4; inactive.
Silencing of PHF10 #3 gave: log2 vehicle/camptothecin viability 0.0322; viability with camptothecin 38.2; inactive.
With knock-down of PHF10 #4, the record shows log2 vehicle/camptothecin viability -0.0418; viability with camptothecin 66.1; inactive.
With knock-down of CELA2A #1 the results were log2 vehicle/camptothecin viability 0.728; viability with camptothecin 23.1; inactive.
CELA2A #2 gave log2 vehicle/camptothecin viability -0.0444; viability with camptothecin 82.1; inactive.
CELA2A #3 showed log2 vehicle/camptothecin viability 0.0745; viability with camptothecin 110; inactive.
After knock-down of BTNL8 #1, the record shows log2 vehicle/camptothecin viability -0.203; viability with camptothecin 74.1; inactive.
Silencing of BTNL8 #2 gave: log2 vehicle/camptothecin viability -0.211; viability with camptothecin 121; inactive.
With knock-down of BTNL8 #3, the record shows log2 vehicle/camptothecin viability 1.73; viability with camptothecin 8.63; inactive.
Against BTNL8 #4 the deposit lists log2 vehicle/camptothecin viability -0.213; viability with camptothecin 106; inactive.
Silencing of TMEM176B #1 resulted in: log2 vehicle/camptothecin viability -0.107; viability with camptothecin 56.6; inactive.
TMEM176B #2 showed log2 vehicle/camptothecin viability 0.183; viability with camptothecin 16.8; inactive.
After knock-down of TMEM176B #3, the record shows log2 vehicle/camptothecin viability -0.31; viability with camptothecin 86.7; inactive.
Knock-down of TMEM176B #4 came out at: log2 vehicle/camptothecin viability 0.315; viability with camptothecin 51.2; inactive.
ANKK1 #1 gave log2 vehicle/camptothecin viability -0.071; viability with camptothecin 101; inactive.
With knock-down of ANKK1 #2, the screen gave log2 vehicle/camptothecin viability 0.216; viability with camptothecin 85; inactive.
Silencing of ANKK1 #3 gave: log2 vehicle/camptothecin viability -0.416; viability with camptothecin 70.6; inactive.
With knock-down of ANKK1 #4, the screen gave log2 vehicle/camptothecin viability -0.181; viability with camptothecin 62.8; inactive.
PKD1 #1 showed log2 vehicle/camptothecin viability -0.301; viability with camptothecin 53.2; inactive.
Depletion of PKD1 #2 resulted in: log2 vehicle/camptothecin viability 0.0954; viability with camptothecin 93.2; inactive.
PKD1 #3 showed log2 vehicle/camptothecin viability 0.0273; viability with camptothecin 89.1; inactive.
Depletion of PKD1 #4 gave: log2 vehicle/camptothecin viability -0.291; viability with camptothecin 127; inactive.

A portion taken from the entries so far:
NPR1 #4 → log2 vehicle/camptothecin viability = -0.0998; viability with camptothecin = 23.4; Outcome = inactive
MSN #1 → log2 vehicle/camptothecin viability = 0.385; viability with camptothecin = 63.9; Outcome = inactive
MSN #2 → log2 vehicle/camptothecin viability = 0.194; viability with camptothecin = 71.4; Outcome = inactive
MSN #3 → log2 vehicle/camptothecin viability = -0.707; viability with camptothecin = 79.5; Outcome = inactive
